These results are taken from patent US20260159546A1, “PHARMACEUTICAL COMPOSITION FOR TREATING SEPSIS INCLUDING DUAL ALARMIN-RECEPTOR-SPECIFIC TARGETING PEPTIDE” (Industry-University Cooperation Foundation Hanyang …, priority 2024, published 2026).

Amino acid sequences for entries named in this document (tags omitted). A change or cut given only in a name is not applied to a line headed by its entry. Residues count along the entry.
UniProt Q62151, residues 23-402: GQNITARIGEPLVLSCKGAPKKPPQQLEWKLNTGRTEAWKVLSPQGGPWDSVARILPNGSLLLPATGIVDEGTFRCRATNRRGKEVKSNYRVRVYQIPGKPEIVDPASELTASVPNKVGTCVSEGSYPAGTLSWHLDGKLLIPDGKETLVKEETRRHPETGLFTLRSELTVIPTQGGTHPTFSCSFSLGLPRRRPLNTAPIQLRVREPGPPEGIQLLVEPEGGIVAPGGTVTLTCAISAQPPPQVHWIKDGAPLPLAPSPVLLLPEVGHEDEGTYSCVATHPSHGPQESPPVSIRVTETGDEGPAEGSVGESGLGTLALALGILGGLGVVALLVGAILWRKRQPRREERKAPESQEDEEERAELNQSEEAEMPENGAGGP
UniProt P63158: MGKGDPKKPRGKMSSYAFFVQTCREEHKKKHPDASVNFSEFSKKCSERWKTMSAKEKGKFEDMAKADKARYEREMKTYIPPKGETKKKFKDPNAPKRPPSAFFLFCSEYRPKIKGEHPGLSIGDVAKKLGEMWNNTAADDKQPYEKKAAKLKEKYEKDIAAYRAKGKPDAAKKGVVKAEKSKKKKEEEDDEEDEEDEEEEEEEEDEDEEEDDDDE

No constants are given. Whether binding was seen depends on the method and setting. Binding can be weak; no strength is given.

The target in this test is RAGE of murine bone marrow-derived macrophages (BMDMs) (mouse) (UniProt Q62151). Nature of the test: BMDMs incubated with 10 µg/mL rFlag-HMGB1 for 3 h; IP with anti-RAGE, immunoblot (FIG. 1C right). (In general: In western blotting, separated proteins are transferred to a membrane and probed.)

As to “recombinant Flag-HMGB1 (from UniProt P63158) (ligand)”, the binding result was “binds”.
